According to publication PMC3727213:
No constants are given. Whether binding was seen depends on the method and setting. Some results given as binding are weak or reduced against the parent protein; the word gives no strength. For some of these results: Sequences can lack the tags named with a protein.

Amino acid sequences for entries named in this document (tags omitted). A change or cut given only in a name is not applied to a line headed by its entry.
UniProt P41279: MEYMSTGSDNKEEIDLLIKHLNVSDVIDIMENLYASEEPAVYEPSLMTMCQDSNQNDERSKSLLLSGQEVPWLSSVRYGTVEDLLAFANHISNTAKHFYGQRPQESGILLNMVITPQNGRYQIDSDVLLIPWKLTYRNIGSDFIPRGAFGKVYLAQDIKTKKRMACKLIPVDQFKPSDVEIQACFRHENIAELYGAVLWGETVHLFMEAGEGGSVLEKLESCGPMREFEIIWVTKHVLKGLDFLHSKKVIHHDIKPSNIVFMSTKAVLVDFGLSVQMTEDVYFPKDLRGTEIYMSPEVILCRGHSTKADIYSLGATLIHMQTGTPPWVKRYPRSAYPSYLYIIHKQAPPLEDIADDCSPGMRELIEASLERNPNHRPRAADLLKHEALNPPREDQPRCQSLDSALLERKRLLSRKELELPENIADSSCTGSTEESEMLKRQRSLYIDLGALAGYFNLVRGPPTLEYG
UniProt P19838: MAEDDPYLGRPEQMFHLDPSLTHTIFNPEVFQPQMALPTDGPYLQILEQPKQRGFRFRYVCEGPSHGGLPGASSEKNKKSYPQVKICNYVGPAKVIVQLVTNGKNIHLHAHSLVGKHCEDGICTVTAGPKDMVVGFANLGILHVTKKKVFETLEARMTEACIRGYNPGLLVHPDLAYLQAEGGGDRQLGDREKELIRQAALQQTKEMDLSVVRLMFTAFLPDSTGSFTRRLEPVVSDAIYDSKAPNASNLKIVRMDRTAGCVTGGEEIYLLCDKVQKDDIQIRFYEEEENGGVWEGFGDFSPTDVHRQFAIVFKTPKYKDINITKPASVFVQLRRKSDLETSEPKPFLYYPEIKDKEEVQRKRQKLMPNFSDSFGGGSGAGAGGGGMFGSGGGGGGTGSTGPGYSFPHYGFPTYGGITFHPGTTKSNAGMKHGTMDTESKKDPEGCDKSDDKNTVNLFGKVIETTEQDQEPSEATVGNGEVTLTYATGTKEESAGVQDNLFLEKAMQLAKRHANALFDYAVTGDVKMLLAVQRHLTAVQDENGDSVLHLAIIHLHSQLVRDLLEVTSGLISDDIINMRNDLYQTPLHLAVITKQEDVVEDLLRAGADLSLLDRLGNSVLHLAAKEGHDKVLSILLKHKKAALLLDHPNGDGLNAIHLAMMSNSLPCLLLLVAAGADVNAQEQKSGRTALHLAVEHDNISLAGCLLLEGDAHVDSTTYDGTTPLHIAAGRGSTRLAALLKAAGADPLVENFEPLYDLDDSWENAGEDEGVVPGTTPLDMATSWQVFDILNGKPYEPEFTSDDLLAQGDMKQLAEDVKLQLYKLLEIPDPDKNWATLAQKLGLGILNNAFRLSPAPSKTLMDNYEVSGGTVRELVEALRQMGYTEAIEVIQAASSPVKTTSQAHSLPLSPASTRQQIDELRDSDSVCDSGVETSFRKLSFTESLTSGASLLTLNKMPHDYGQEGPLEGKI

T1: C-terminally StrepII-tagged ABIN-2 (A20-binding inhibitor of NF-κB 2) (UniProt Q8NFZ5)
T1 sequence: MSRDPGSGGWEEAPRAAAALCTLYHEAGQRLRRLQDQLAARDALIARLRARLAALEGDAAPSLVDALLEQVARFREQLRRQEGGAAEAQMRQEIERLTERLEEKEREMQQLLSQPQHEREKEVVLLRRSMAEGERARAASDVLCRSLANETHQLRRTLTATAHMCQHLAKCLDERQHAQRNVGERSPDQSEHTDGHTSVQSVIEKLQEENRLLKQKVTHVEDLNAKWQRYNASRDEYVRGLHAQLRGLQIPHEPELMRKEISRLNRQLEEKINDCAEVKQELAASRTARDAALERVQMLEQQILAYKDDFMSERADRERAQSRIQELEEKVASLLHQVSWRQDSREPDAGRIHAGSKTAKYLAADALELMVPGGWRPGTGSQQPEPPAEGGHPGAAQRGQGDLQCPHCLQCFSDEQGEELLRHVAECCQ


Legend:
Assay in all cases: SEC
[1] = biological target: recombinant His6–TPL-2–ABIN-2–StrepII–HA–p105 complex (UniProt P41279)
[2] = biological target: T1, C-terminally StrepII-tagged ABIN-2 (A20-binding inhibitor of NF-κB 2)
[3] = biological target: His6-tagged TPL-2 (tumour progression locus 2) (human) (UniProt P41279)

binding [1]	binding [2]	binding [3]	Molecule
binds	–	–	NF-κB1 p50 (from UniProt P19838 1-433)
–	binds	binds	HA (haemagglutinin)-tagged NF-κB1 p105 (from UniProt P19838 1-968)
–	–	binds	C-terminally StrepII-tagged ABIN-2 (A20-binding inhibitor of NF-κB 2) (protein, UniProt Q8NFZ5-1 1-429) MSRDPGSGGWEEAPRAAAALCTLYHEAGQRLRRLQDQLAARDALIARLRARLAALEGDAAPSLVDALLEQVARFREQLRRQEGGAAEAQMRQEIERLTERLEEKEREMQQLLSQPQHEREKEVVLLRRSMAEGERARAASDVLCRSLANETHQLRRTLTATAHMCQHLAKCLDERQHAQRNVGERSPDQSEHTDGHTSVQSVIEKLQEENRLLKQKVTHVEDLNAKWQRYNASRDEYVRGLHAQLRGLQIPHEPELMRKEISRLNRQLEEKINDCAEVKQELAASRTARDAALERVQMLEQQILAYKDDFMSERADRERAQSRIQELEEKVASLLHQVSWRQDSREPDAGRIHAGSKTAKYLAADALELMVPGGWRPGTGSQQPEPPAEGGHPGAAQRGQGDLQCPHCLQCFSDEQGEELLRHVAECCQ
